# Experimental data from paper PMC7862700.
# By UniProt entry, the sequences of proteins in these tests, tags left out. Where a name states a change or a piece, a line headed by the entry shows the natural chain unless it says otherwise.
# UniProt Q99607: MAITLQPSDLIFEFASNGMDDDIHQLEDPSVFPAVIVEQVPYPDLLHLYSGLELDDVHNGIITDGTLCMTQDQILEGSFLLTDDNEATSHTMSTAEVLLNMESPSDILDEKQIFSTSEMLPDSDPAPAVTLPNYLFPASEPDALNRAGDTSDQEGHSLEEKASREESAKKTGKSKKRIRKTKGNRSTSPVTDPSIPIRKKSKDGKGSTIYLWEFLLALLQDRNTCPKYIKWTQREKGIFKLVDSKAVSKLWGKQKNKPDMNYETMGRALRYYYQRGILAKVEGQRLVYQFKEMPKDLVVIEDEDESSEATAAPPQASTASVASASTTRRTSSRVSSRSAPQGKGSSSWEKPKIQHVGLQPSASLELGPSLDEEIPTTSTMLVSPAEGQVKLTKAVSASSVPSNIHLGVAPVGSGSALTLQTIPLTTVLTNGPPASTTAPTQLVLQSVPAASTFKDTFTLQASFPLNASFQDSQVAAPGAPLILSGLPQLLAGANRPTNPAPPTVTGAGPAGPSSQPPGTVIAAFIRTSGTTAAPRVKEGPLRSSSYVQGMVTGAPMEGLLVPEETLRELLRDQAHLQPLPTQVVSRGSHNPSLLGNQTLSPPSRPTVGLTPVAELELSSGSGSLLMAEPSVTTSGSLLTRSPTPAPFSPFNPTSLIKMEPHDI
# UniProt Q01892: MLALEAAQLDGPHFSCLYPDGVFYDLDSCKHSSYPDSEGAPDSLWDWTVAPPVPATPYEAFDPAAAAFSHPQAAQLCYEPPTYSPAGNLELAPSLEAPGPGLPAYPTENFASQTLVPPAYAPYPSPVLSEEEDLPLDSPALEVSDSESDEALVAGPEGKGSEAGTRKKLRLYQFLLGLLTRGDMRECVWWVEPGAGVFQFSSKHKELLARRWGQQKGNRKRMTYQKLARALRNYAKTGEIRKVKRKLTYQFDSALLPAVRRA
# The list shows a part of the results, in another mix than the full data. At the low end of the ranking, values are background and their order means little.
# What was measured:
# Experiment in all cases: DAPPL (digital affinity profiling via proximity ligation, sequencing)
# Conditions in all cases: 10 mM Tris-HCl pH 7.5, 50 mM NaCl, 1 mM DTT, 4% glycerol, room temperature, 30 min; GST-TFs on glutathione beads, 16-mer random dsDNA library, 0.1% …; high values mean tight binding; double strand, one strand shown; scale: fold enrichment (6-mer frequency, TF over GST control)
# [1] = target: ELF4 (UniProt Q99607)
# [2] = target: T1, ETV2 (UniProt O00321)
# T1 sequence: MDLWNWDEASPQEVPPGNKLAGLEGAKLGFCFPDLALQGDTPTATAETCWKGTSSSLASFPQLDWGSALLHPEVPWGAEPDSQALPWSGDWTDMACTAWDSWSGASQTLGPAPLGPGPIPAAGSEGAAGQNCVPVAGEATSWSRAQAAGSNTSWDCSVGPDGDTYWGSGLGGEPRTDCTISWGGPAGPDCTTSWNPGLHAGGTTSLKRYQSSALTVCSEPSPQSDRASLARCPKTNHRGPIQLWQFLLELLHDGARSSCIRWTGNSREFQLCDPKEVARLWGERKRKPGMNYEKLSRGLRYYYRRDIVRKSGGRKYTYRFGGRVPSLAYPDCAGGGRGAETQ
# [3] = target: T2, ETV3L (UniProt Q6ZN32)
# T2 sequence: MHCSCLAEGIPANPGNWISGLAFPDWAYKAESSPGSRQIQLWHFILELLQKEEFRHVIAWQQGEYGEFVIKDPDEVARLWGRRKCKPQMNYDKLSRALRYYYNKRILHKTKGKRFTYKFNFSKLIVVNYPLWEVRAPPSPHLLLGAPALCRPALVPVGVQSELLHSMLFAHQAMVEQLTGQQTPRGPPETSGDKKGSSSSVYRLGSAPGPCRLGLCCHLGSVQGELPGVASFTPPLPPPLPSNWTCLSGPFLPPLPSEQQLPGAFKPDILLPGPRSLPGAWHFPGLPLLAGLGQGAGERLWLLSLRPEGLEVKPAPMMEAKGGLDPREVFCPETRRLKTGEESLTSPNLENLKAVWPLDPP
# [4] = target: T3, EHF (UniProt Q9NZC4)
# T3 sequence: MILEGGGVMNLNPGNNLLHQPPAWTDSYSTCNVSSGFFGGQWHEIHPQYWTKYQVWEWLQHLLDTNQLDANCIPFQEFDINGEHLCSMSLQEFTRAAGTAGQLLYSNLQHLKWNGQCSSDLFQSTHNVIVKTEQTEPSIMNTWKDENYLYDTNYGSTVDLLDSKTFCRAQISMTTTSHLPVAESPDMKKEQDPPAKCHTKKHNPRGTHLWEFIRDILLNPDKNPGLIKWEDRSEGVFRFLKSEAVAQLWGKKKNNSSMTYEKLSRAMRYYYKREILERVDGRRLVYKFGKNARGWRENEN
# [5] = target: SPIB (UniProt Q01892)
sequence,measurement,setting,value
AACATG,binding signal,[1],1.23
TTCTCG,binding signal,[1],1.51
same,binding signal,[2],1.4
TACTAG,binding signal,[1],0.986
same,binding signal,[2],1.17
TCGATT,binding signal,[1],1.19
same,binding signal,[2],1.04
CTGTTA,binding signal,[1],1.37
CTCTGT,binding signal,[1],1.33
same,binding signal,[2],1.39
CTTATC,binding signal,[1],1.12
TATCTC,binding signal,[1],1.21
CCATTG,binding signal,[1],1.17
TTAAAG,binding signal,[1],1.15
same,binding signal,[2],1.12
CATCCC,binding signal,[1],1.22
same,binding signal,[2],1.15
ATGATA,binding signal,[1],1.26
GCTTTG,binding signal,[1],1.17
GCTTTC,binding signal,[1],1.23
CTCCGG,binding signal,[1],1.56
TGCGAT,binding signal,[1],1.2
same,binding signal,[2],1.17
TTTGAA,binding signal,[1],1.32
same,binding signal,[2],1.38
CACTAA,binding signal,[1],1.2
same,binding signal,[2],1.2
TCCTCA,binding signal,[1],1.57
CTATAT,binding signal,[1],1.41
ATTTAT,binding signal,[1],1.35
TTTTCA,binding signal,[1],1.27
ATTATG,binding signal,[1],1.22
same,binding signal,[2],1.03
CATATA,binding signal,[1],1.11
same,binding signal,[2],1.17
AACCAT,binding signal,[1],1.15
AAGTCT,binding signal,[1],1.06
AATAAG,binding signal,[1],1.26
TGTATC,binding signal,[1],1.44
TAATCT,binding signal,[1],1.51
same,binding signal,[2],1.34
AATGAT,binding signal,[1],1.17
same,binding signal,[2],1.21
ATACTA,binding signal,[1],1.19
same,binding signal,[2],1.14
TATAGT,binding signal,[1],1.03
same,binding signal,[2],1.12
ATCCCC,binding signal,[1],1.37
same,binding signal,[2],1.39
GATGAT,binding signal,[1],1.32
same,binding signal,[2],1.33
AATTCC,binding signal,[1],1.92
GCTCTG,binding signal,[1],1.17
same,binding signal,[2],1
ACTGGC,binding signal,[1],1.16
TAAATA,binding signal,[1],1.26
same,binding signal,[2],1.36
AAATGA,binding signal,[1],1.29
same,binding signal,[3],1.29
GATTCT,binding signal,[4],1.26
same,binding signal,[1],1.19
same,binding signal,[2],1.15
AACGTT,binding signal,[4],1.09
same,binding signal,[1],1.14
same,binding signal,[2],0.972
AATTCA,binding signal,[1],1.33
same,binding signal,[2],1.36
same,binding signal,[3],1.35
TGGTAC,binding signal,[1],1.08
same,binding signal,[3],1.21
AATTGC,binding signal,[1],1.36
same,binding signal,[3],1.35
ACCGAT,binding signal,[1],1.24
same,binding signal,[3],1.11
ATGCAA,binding signal,[4],1.25
same,binding signal,[5],1.26
same,binding signal,[1],1.25
same,binding signal,[2],1.26
TGCTTT,binding signal,[4],1.04
same,binding signal,[1],1.14
same,binding signal,[2],1.12
CTTTCT,binding signal,[1],1.48
same,binding signal,[3],1.5
ATGGAT,binding signal,[1],1.11
same,binding signal,[3],1.16
CCTAGA,binding signal,[4],0.923
same,binding signal,[5],0.964
same,binding signal,[1],0.996
same,binding signal,[2],0.861
same,binding signal,[3],0.942
AAATTG,binding signal,[1],1.27
same,binding signal,[3],1.29
CATCTG,binding signal,[1],1.25
same,binding signal,[3],1.23
AAGTAA,binding signal,[1],1.27
same,binding signal,[3],1.31
TAATGA,binding signal,[4],1.2
same,binding signal,[1],1.17
same,binding signal,[2],1.13
TTCTTT,binding signal,[1],1.28
same,binding signal,[3],1.27
GAACCC,binding signal,[1],1.22
same,binding signal,[2],1
same,binding signal,[3],1.19
TTAAGC,binding signal,[4],1.13
same,binding signal,[1],1.22
same,binding signal,[2],1.03
same,binding signal,[3],1.22
ACTCCT,binding signal,[1],1.59
same,binding signal,[2],1.38
same,binding signal,[3],1.54
TTGATA,binding signal,[1],1.29
same,binding signal,[3],1.27
TAAAAG,binding signal,[1],1.17
same,binding signal,[3],1.1
ATACAA,binding signal,[1],1.17
same,binding signal,[2],1.04
same,binding signal,[3],1.12
GCTATA,binding signal,[4],1.16
same,binding signal,[5],1.25
same,binding signal,[1],1.14
same,binding signal,[2],1.2
same,binding signal,[3],1.08
TTCCGT,binding signal,[4],2
same,binding signal,[1],1.67
same,binding signal,[2],1.88
TACTGA,binding signal,[5],0.848
same,binding signal,[1],1.11
same,binding signal,[2],1.12
TCACAC,binding signal,[4],1.3
same,binding signal,[1],1.36
same,binding signal,[2],1.29
AAGAAA,binding signal,[1],1.19
same,binding signal,[3],1.26
ATAAAC,binding signal,[5],1.19
same,binding signal,[1],1.16
same,binding signal,[2],1.19
CCCTTT,binding signal,[4],1.35
same,binding signal,[5],1.49
same,binding signal,[1],1.49
same,binding signal,[2],1.33
ATCTCC,binding signal,[1],1.57
same,binding signal,[3],1.46
TCCTAC,binding signal,[4],1.45
same,binding signal,[1],1.41
same,binding signal,[2],1.59
CTTTAA,binding signal,[1],1.26
same,binding signal,[3],1.34
ACTTTA,binding signal,[4],1.2
same,binding signal,[5],1.19
same,binding signal,[1],1.23
same,binding signal,[2],1.26
GTTCTT,binding signal,[1],1.18
same,binding signal,[3],1.28
TACTCG,binding signal,[1],1.22
same,binding signal,[3],1.27
TCCTTT,binding signal,[5],1.67
same,binding signal,[1],1.77
same,binding signal,[2],1.47
same,binding signal,[3],1.85
TGGATG,binding signal,[4],1.5
same,binding signal,[1],1.49
same,binding signal,[2],1.49
CCTGGA,binding signal,[5],1.5
same,binding signal,[1],1.47
CTCCTT,binding signal,[5],1.82
same,binding signal,[1],1.8
GAACTC,binding signal,[4],1.28
same,binding signal,[5],1.28
same,binding signal,[1],1.26
TACCAA,binding signal,[4],1.13
same,binding signal,[5],1.13
same,binding signal,[1],1.2
AACAAA,binding signal,[4],1.17
same,binding signal,[1],1.16
TCAACC,binding signal,[4],1.15
same,binding signal,[5],1.17
same,binding signal,[1],1.19
AAAACA,binding signal,[4],1.31
same,binding signal,[1],1.39
TGTACT,binding signal,[4],1.3
same,binding signal,[1],1.29
CGATCG,binding signal,[4],1.07
same,binding signal,[5],1.03
same,binding signal,[1],1.04
AACATC,binding signal,[4],1.51
same,binding signal,[1],1.41
TAAGGT,binding signal,[5],1.07
same,binding signal,[1],1.19
same,binding signal,[3],0.991
TTGTCT,binding signal,[4],1.18
same,binding signal,[1],1.18
ACTACT,binding signal,[4],1.34
same,binding signal,[1],1.22
GAATAC,binding signal,[4],0.999
same,binding signal,[5],0.984
same,binding signal,[1],1.01
AAATGG,binding signal,[4],1.55
same,binding signal,[5],1.43
same,binding signal,[1],1.49
same,binding signal,[3],1.54
CCATTT,binding signal,[5],1.37
same,binding signal,[1],1.32
same,binding signal,[3],1.25
ATCTAA,binding signal,[4],1.23
same,binding signal,[1],1.23
CTCACT,binding signal,[4],1.56
same,binding signal,[1],1.53
same,binding signal,[3],1.52
GCTCCA,binding signal,[4],1.19
same,binding signal,[1],1.22
ATGGAC,binding signal,[4],1.21
same,binding signal,[1],1.2
same,binding signal,[3],1.21
CGTTAA,binding signal,[5],1.13
same,binding signal,[1],1.12
CGACTA,binding signal,[5],1.32
same,binding signal,[1],1.48
TTCCAG,binding signal,[4],0.999
same,binding signal,[1],1.17
AAAAGT,binding signal,[4],1.1
same,binding signal,[1],1.1
TTTCTC,binding signal,[4],1.59
same,binding signal,[1],1.6
TATCCT,binding signal,[5],1.8
same,binding signal,[1],1.65
AATGAG,binding signal,[4],1.18
same,binding signal,[5],1.08
same,binding signal,[1],1.14
ACTTAT,binding signal,[4],1.41
same,binding signal,[5],1.38
same,binding signal,[1],1.35
ACCGAC,binding signal,[4],1.23
same,binding signal,[1],1.31
same,binding signal,[3],1.44
CTTTCA,binding signal,[4],1.3
same,binding signal,[5],1.28
same,binding signal,[1],1.44
ACTACC,binding signal,[4],1.51
same,binding signal,[1],1.66
CGTAAT,binding signal,[4],1.13
same,binding signal,[1],1.22
TTTAGC,binding signal,[4],1.12
same,binding signal,[1],1.2
CTATGA,binding signal,[5],1.13
same,binding signal,[1],1.1
same,binding signal,[3],0.981
ATCTTT,binding signal,[4],1.27
same,binding signal,[1],1.22
CATTCC,binding signal,[4],1.19
same,binding signal,[1],1.27
TCGCTC,binding signal,[4],1.19
same,binding signal,[1],1.31
TGATCT,binding signal,[4],1.22
same,binding signal,[1],1.16
same,binding signal,[3],1.1
CACCAT,binding signal,[2],1.17
CGATCT,binding signal,[2],1.27
TATGTA,binding signal,[2],1.23
TGCTGC,binding signal,[2],0.942
TAGCGG,binding signal,[2],1.19
TCGCTA,binding signal,[2],1.24

# Quoted at random: 2 records from the list.
sequence,measurement,setting,value
ACTTAT,binding signal,[1],1.35
ACCGAT,binding signal,[1],1.24

# Quoted from the listing (six entries):
sequence,measurement,setting,value
TTTAGC,binding signal,[1],1.2
CTATGA,binding signal,[5],1.13
same,binding signal,[1],1.1
same,binding signal,[3],0.981
ATCTTT,binding signal,[4],1.27
same,binding signal,[1],1.22

# A different layout for part of the listing above:
sequence | measurement | setting | value
AACATG | binding signal | [1] | 1.23
TTCTCG | binding signal | [1] | 1.51
same | binding signal | [2] | 1.4
